Test results published in the supplement of paper PMC5949888.
± gives the standard deviation of the averaged measurements. Most values lie at the floor of the assay. Slopes are relative: functional sequences can read slightly below zero.

Tested on: Saccharomyces cerevisiae PS128 hsf1 delta, HSF1(1-493) fusion
Assay: growth estimate (transactivation domain function in HSF1 fusion, heat-shock survival) (a.u. (slope of normalised read count over time)); higher = stronger growth at 37°C, i.e. more transactivation activity
Conditions: library: random library
Protocol: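 Random 60-nt DNA library encoding peptides of up to 20 aa, fused to the C-terminus of yeast HSF1 residues 1-493 (C-terminal TAD deleted) and expressed from the native HSF1 promoter on a CEN plasmid in hsf1-deleted S. cerevisiae PS128. Cells were selected at 37°C on -trp 5-FOA plates for 0, 2, 4, 6 and 8 days and amplicons were sequenced. Growth estimate is the slope of a robust linear fit of total-sum-normalised read counts (normalised to the first time point) over time, using at least 2 replicates. Sequences are classed functional (TAD activity) above a threshold of -0.13, set from stop-codon control sequences.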

Substance | growth estimate
FTGGSRSTLGGYLTGWPSTH | < -0.25
HRSSGVDLTSSDKRHP | < -0.25
IILRLPTHRYC | < -0.25
VVRIIGA | < -0.25
LSRLSCE | < -0.25
SGLHLNVRWCYGGSGC | < -0.25
LKPFLNNSSQVRAGGLWQLP | < -0.25
QYYLQSACFVPRDTVVAPLT | < -0.25
VSLSGETLGRLTFVQYSNKC | < -0.25
CLESCSCGTMGGKITLLSGR | < -0.25
LTSDLGVEAPGVYRRPIQGR | -0.213
VGVYCVDASVFVAQP | < -0.25
GDMPSTSSSQILDSQIKCRV | < -0.25
CPRPVLDPL | < -0.25
WRNLGNV | < -0.25
GTRRPTGHCDLHGNSSLVLT | -0.245
KLPETYLSGML | < -0.25
KVGATWSRQS | < -0.25
IRPSVWIVGSQQGRAYTVGT | < -0.25
ELTRYANKIYLTVASKLIPG | < -0.25
DNERICLRLVV | < -0.25
EAVLASTWSGRYFVND | < -0.25
LIVARELTLILHWTLAVG | < -0.25
AEQVRVRRLLLYCRLLVWSS | < -0.25
RLAMCYAFR | < -0.25

Substance | growth estimate
CSEEAG | < -0.25
TTRWIGGRVVPFLTGNCEAN | < -0.25
APSAVHNRCQPRSARGSAFP | < -0.25
LYPGL | < -0.25
TMVRT | < -0.25
RVRE | < -0.25
IQRAGTSCTHRRSDIYMTGM | < -0.25
RFAEASHGSYCVIDRLCLGQ | < -0.25
EVLKRRPTSTTYR | < -0.25
GLVSRPRGANSYTSSRGYLH | -0.231
TRKVDEKDV | < -0.25
IKPIAKTD | < -0.25
EFGLAKWNGGP | < -0.25
HTFHVQRRSVGTIGPTTTGS | < -0.25
SEDIAARKARQLVNGTYTPP | < -0.25
CGHS | < -0.25
YPASASPDTPAGAAN | < -0.25
TRFVPTR | < -0.25
PWIAR | < -0.25
GAELRMSSMGRDVALGSNWV | < -0.25
TSLIRP | < -0.25
RYQMEWDADSDDARTYSDSD | < -0.25
FAPVGARLDVYQPAIGCVLA | < -0.25
AKGLGDIYSCSAYESLRRCL | < -0.25
VTSTRQSHGTGRGELSLRSS | < -0.25

Substance | growth estimate
PDKAEIVAHCRWVHASST | -0.179
VIIVRHQIKNVFRI | < -0.25
QTGGGIRGL | < -0.25
RPRLHLVAPQLSCLWVEVGL | < -0.25
MARGTPPTHRFR | < -0.25
SRT | < -0.25
DPYARASGCRRSGTNLSAKI | < -0.25
PQRLDEAALPDGRKR | < -0.25
GIKESDAFHTLDSNLIAAKC | < -0.25
FIIMVRG | -0.246
FVRVEAGTCLGTCMGGK | < -0.25
GLWSHPTLLIRIRATGPRRR | < -0.25
NSGLLIWPGRGLMCGSSRSC | < -0.25
HSVTTDKIREVTVADKRNCS | < -0.25
LYAAPVSSWAWDCQDNTVYY | -0.0145
LRD | < -0.25
CCISRSH | < -0.25
CGRHSSGQVFGYIAVWPPRV | < -0.25
AALCKLARANFFG | < -0.25
TRMKRGGGRTITRYRLP | < -0.25
LMVLSWGARGIRGW | < -0.25
VRVDLLKYTYIHVVTGVT | < -0.25
QRKIGQQRCTWMDRLTGASI | < -0.25
IGTEVCKCRRQS | < -0.25
GGFEENRQGLGLNAM | < -0.25

2 entries from above in another layout:
WRNLGNV
  growth estimate: < -0.25
GTRRPTGHCDLHGNSSLVLT
  growth estimate: -0.245

A second format for some results above:

| Substance | growth estimate |
| --- | --- |
| NSGLLIWPGRGLMCGSSRSC | < -0.25 |
| LRD | < -0.25 |
| VRVDLLKYTYIHVVTGVT | < -0.25 |

Next part:

Substance | growth estimate
DEPFTYACLSVIRRPNGTVR | < -0.25
PQLELILVRVAMGPKRRRPR | < -0.25
CVPIKEVVQKFVLTLDFAHL | < -0.25
GLTQKYRSRRHVGILGVNRY | < -0.25
AYR | < -0.25
RLFRRLVGVGSNRNPAGQRR | < -0.25
WARDDYIPPPNPRSMLVGSA | < -0.25
YQTPPWTTHTRSIFCNGIDC | < -0.25
IFAGRSPVR | < -0.25
HGVGPGIISQT | < -0.25
GSFATGKVTLVNGPVC | < -0.25
DNPAYYSITLGAGPVRVRIC | < -0.25
GQSAFSYPFSIPQLGCCT | < -0.25
PGKANDFRAAGTQITVGRI | < -0.25
FIR | < -0.25
SVYHVAISQLTSAVASGLFI | < -0.25
KRM | < -0.25
CMLQGATSIAACVRLFKAYS | < -0.25
SHDTL | < -0.25
LVRHTRQVGTTGPMWSCPRS | < -0.25
WGLKSQASSNAQRFC | < -0.25
WDARSSSVEVAFLCVWYNEL | < -0.25
NRT | < -0.25
SPQCR | < -0.25
RRVYGWGIELNVV | < -0.25

Looked up one by one from above:
Substance | growth estimate
SPQCR | < -0.25
DNPAYYSITLGAGPVRVRIC | < -0.25
LVRHTRQVGTTGPMWSCPRS | < -0.25
FIR | < -0.25
GLTQKYRSRRHVGILGVNRY | < -0.25

(next part)

Substance | growth estimate
KQKILNQRVSRSTGQLELLD | < -0.25
SLLHTAHNCQNGIRMNLGPA | < -0.25
GKVTWFLTVGMYEVRDITYR | < -0.25
TRCAIDVNAAVGRRHS | < -0.25
FASNTQVSGREREVSRACRL | < -0.25
VVRVD | < -0.25
NGKSLSG | < -0.25
AKRSSLEIWMVFDY | < -0.25
PPVTGRGVVHRPA | < -0.25
CVILYRTGG | < -0.25
TDWFC | < -0.25
STLGRTTGSHRLFT | < -0.25
HHGRAREPFLRGALGPVRHT | < -0.25
LRRGCGSPISYATLATKFLA | < -0.25
SVFIRL | < -0.25
ESQTSLERSFILI | < -0.25
ESPGK | < -0.25
RVLTLGRSPARSPTVGGIKQ | < -0.25
WYRVAQQTFGLNLFLVKLSQ | < -0.25
VRRGAVKFATLGLTVKDEEV | < -0.25
FQGCTKRLIKRRSAVLPLYT | < -0.25
RGRCSLSRSQ | < -0.25
TGNA | < -0.25
RGR | -0.248 ± 0.003
LWLCKDLDGVRFLVRLA | < -0.25

Substance | growth estimate
STVSLSDW | < -0.25
PVKDVAGCGTSTNTRAHLRS | < -0.25
MVPANIAFDPITIVHRHRHR | -0.245
KSFTRRTTI | < -0.25
FYFRVHGRTRRAQLRGRARA | < -0.25
NSTVTRDPVAGVSFHRSSIT | < -0.25
YSKELA | < -0.25
LTGINESGEKVTVLLHVIYS | < -0.25
RSNGKPPTGGRGA | < -0.25
LDRPTVLWDNTLGEHKGLFL | < -0.25
GGRPGSD | < -0.25
ALSLVLSTPLLVTGDEPRLR | < -0.25
WVGVSAGLVCA | < -0.25
SSCRRFM | < -0.25
TRDHRESRVLRYTKTLEARR | < -0.25
DWLNRTTP | < -0.25
LMDDAPERVRGDRMCTCPFL | < -0.25
SCITKQAICRA | < -0.25
CTGG | < -0.25
VVNT | < -0.25
VPESVLAV | < -0.25
